# Measurements from PubChem BioAssay AID504834 (National Center for Advancing Translational Sciences (NCATS), 2011).
# Among all 320,000 compounds or so, about 22,000 (6.9%) were called active. Inconclusive results, whose numbers are uncertain, are shown with a selection of clear calls. Calls follow the shape of the dose curve; as a rule, active = well fitted inhibition curve with a large enough effect; inconclusive = small, poorly fitted or top-dose-only effect, or another doubt; inactive = no such curve, though single readings can be large or run the other way. A potency beside an inconclusive call is a rough fit, not a confirmed value.
# Assay: Primary qHTS for delayed death inhibitors of the malarial parasite plastid, 96 hour incubation
# Details: P. falciparum luciferase reporter growth; series mostly up to 28.7 µM; activity change, negative = inhibition: at the top concentration
# Summary of the method: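 Plates of compound plus infected erythrocytes (2% hematocrit, 0.05% parasitemia final) incubate 96 hours, 37 C, 5% CO2. Detection reagent added; reduced luminescence from the parasites' luciferase reporter flags inhibition.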
# % is scaled to controls: 0 for no effect and ±100 for the full control effect; potency is read from the fitted curve at half-maximal effect.
SMILES,"activity change, negative = inhibition",Potency
O=C(Cn1cc(S(=O)(=O)N2CCN(c3ccccc3F)CC2)c2ccccc2c1=O)NCCCN1CCCCCC1,inactive: -12.3%,
COc1ccc(C(=O)Nc2cc(C)ccc2NC(=O)COc2ccccc2)cc1,,"inconclusive: 18.5 µM [inhibitor, single point]"
O=C(CCc1ccncc1)N1CCCC(Nc2ccc(F)c(F)c2)C1 (centres undefined),,active: 13.1 µM
Cc1ccc(NCN2C(=O)C(=O)c3ccccc32)nc1,,"inconclusive: 10.4 µM [inhibitor, single point]"
CC(=O)Nc1ccc(OCC(=O)N(CC(C)C)C2CCS(=O)(=O)C2)cc1 (centres undefined),inactive: -37% [at 5.75 µM],
CN(C(=O)c1ccc2c(c1)S(=O)(=O)N=C1CCCCCN12)c1ccccc1,inactive: 0.251%,
CC(=O)NCC(=O)N1CCCC(C(=O)c2ccc3c4c(cccc24)CC3)C1 (centres undefined),,"inconclusive: 13.1 µM [inhibitor, single point]"
Cc1ccnc(SCCn2c(N3CCCCC3)nc3c2c(=O)[nH]c(=O)n3C)n1,,"inconclusive: 13.1 µM [inhibitor, partial curve]"
CC1CCCCN1S(=O)(=O)c1ccc2c(c1)CCN2C(=O)C1CC1 (centres undefined),,"inconclusive: 18.5 µM [inhibitor, single point]"
CCOc1cc(C(=O)OCC(=O)Nc2ccc(SC(F)F)cc2)cc(OCC)c1OCC,,"inconclusive: 18.5 µM [inhibitor, single point]"
COc1cccc(/C=N/NC(=O)CSc2nnc(C)n2-c2ccccc2)c1O,inactive: 32.8%,
Cc1ccc(C(=O)O/N=C(\N)Cc2cccs2)c(Cl)c1,,"inconclusive: 18.5 µM [inhibitor, single point]"
COc1ccc(N2CCN(CC(=O)Nc3ccc(C)cc3)CC2)cc1,,"inconclusive: 18.5 µM [inhibitor, single point]"
CC[C@@H]1CC=C[C@H]2[C@H]1C(=O)N(Cc1ccccc1)[C@H]2c1ccc(C(F)(F)F)cc1,,"inconclusive: 18.5 µM [inhibitor, single point]"
CC(=O)n1nc(-c2ccc(C)cc2)nc1NCc1ccc(F)cc1,,"inconclusive: 10.4 µM [inhibitor, single point]"
COc1ccc(NC(=O)c2ccc3nc(-c4ccccc4)c(-c4ccccc4)nc3c2)c(OC)c1,,"inconclusive: 18.5 µM [inhibitor, single point]"
CCSc1ncc(/C=N/Nc2ccc(Cl)cc2)n1C,,"inconclusive: 18.5 µM [inhibitor, single point]"
CC1(C(=O)Nc2c(F)c(F)c(F)c(F)c2F)CC1(Br)Br (centres undefined),,"inconclusive: 18.5 µM [inhibitor, single point]"
CCOc1ccc(-n2cc(C(=O)c3cc(Cl)ccc3O)cc(C#N)c2=O)cc1,,"inconclusive: 10.4 µM [inhibitor, partial curve, poor fit]"
COc1nc(N)nc2c1ncn2[C@@H]1O[C@H](CO)[C@@H](O)[C@@H]1O,,"inconclusive: 10.7 µM [inhibitor, partial curve]"
O=C(O)COCC(=O)Nc1ccc2c(c1)oc1ccccc12,,"inconclusive: 18.5 µM [inhibitor, single point]"
CCCN1C2CCCC1CC(NC(=O)Nc1ccc(C(C)C)cc1)C2 (centres undefined),,"inconclusive: 6.57 µM [inhibitor, partial curve, poor fit]"

SMILES,"activity change, negative = inhibition",Potency
CCOc1cccc(C2/C(=C(/O)c3ccc4c(c3)CC(C)O4)C(=O)C(=O)N2Cc2cccnc2)c1 (centres undefined),,"inconclusive: 18.5 µM [inhibitor, single point]"
CCN(CC(=O)NCc1cccs1)C(=O)COc1ccccc1C#N,,"inconclusive: 10.4 µM [inhibitor, single point]"
CCOc1cc(NC(=O)c2cccs2)c(OCC)cc1NC(=O)CCC(=O)NCCN1CCOCC1,,"inconclusive: 18.5 µM [inhibitor, single point]"
COc1ccc(C(=O)NCCCNC(=O)c2cc3ccccc3[nH]2)cc1OC,,"inconclusive: 6.57 µM [inhibitor, partial curve]"
NC(=O)C1CCN(C(=O)COc2ccc(S(=O)(=O)NCc3ccccc3)cc2Cl)CC1,,"inconclusive: 9.28 µM [inhibitor, partial curve, poor fit]"
CC(=O)Nc1cccc(NC(=O)Nc2cccc(F)c2)c1,inactive: 15.9%,
CCCc1nnc(NC(=O)CSc2nc3ccccc3[nH]2)s1,inactive: 48.2%,
O=C(Nc1ccccc1N1CCN(C(=O)c2ccc(Cl)cc2)CC1)c1ccc(Br)cc1,,"inconclusive: 18.5 µM [inhibitor, single point]"
Cc1nc2ccccc2c(=O)n1CC(=O)N1CCOCC1,,"inconclusive: 18.5 µM [inhibitor, single point]"
Cn1nnnc1SCC(=O)N1c2ccccc2Sc2ccccc21,,"inconclusive: 18.5 µM [inhibitor, partial curve, poor fit]"
CC(C)(C)Nc1nc(NN)nc(NC(C)(C)C)n1,,"inconclusive: 0.0029 µM [inhibitor, full curve, poor fit]"
COc1ccc(C(=O)N/C(=C\c2ccc3c(c2)OCO3)C(=O)Nc2ccc(C(=O)O)cc2)cc1,,"inconclusive: 1.31 µM [inhibitor, partial curve, poor fit]"
Nc1nonc1-n1nnc(C(=O)N/N=C/c2ccoc2)c1CSc1ccccc1,,"inconclusive: 20.8 µM [inhibitor, single point]"
OCC1O[C@H](O[C@H]2C(O)C(O)C(O)O[C@@H]2CO)C(O)C(O)C1O (some centres undefined),,"inconclusive: 2.69 µM [inhibitor, full curve, poor fit]"
COc1ccc(NC(=O)c2c3c(nc4ccccc24)CCC3)cc1,,"inconclusive: 2.08 µM [inhibitor, partial curve, poor fit]"
C#CCOCCOCCOCCNc1nc(N2CCN(C(=O)[C@H](Cc3cc4ccccc4[nH]3)n3cc([C@@H](N)C(C)CC)nn3)CC2)nc(N2CCN(C(=O)[C@H](Cc3cc4ccccc4[nH]3)n3cc([C@@H](N)Cc4ccc(O)cc4)nn3)CC2)n1 (some centres undefined),,"inconclusive: 4.15 µM [inhibitor, single point]"
O=C(Nc1ccccc1N1CCN(C(=O)c2ccccc2)CC1)c1ccccc1Cl,,"inconclusive: 3.7 µM [inhibitor, partial curve]"
Cc1cc(NCc2ccccc2)n2ncnc2n1,inactive: -29%,
O=C(C[n+]1cc(-c2ccc(Cl)c(Cl)c2)n2c1CCC2)N1c2ccccc2Sc2ccccc21,,"inconclusive: 1.47 µM [inhibitor, full curve, poor fit]"
COCCNC(=O)c1ccccc1NC(=O)Cc1ccccc1,,"inconclusive: 5.86 µM [inhibitor, single point]"
C=C(C)CSc1nnc([C@@H](NC(=O)OC(C)(C)C)C(C)CC)o1 (some centres undefined),,"inconclusive: 16.5 µM [inhibitor, single point]"
Cc1ccccc1OCC(=O)NNC(=S)NC(=O)c1ccccc1[N+](=O)[O-],,"inconclusive: 20.8 µM [inhibitor, partial curve, poor fit]"

SMILES,"activity change, negative = inhibition",Potency
COc1ccc(-c2ccc(S(=O)(=O)NCC3CCCO3)cc2)cc1 (centres undefined),,"inconclusive: 11.7 µM [inhibitor, single point]"
C/C=C/c1ccc(OCC(O)CNCC(c2ccc(OC)cc2)N(C)C)c(OC)c1 (centres undefined),,"inconclusive: 18.5 µM [inhibitor, single point]"
COc1ccc(CCNC(=O)C(=O)NCC2OCCN2S(=O)(=O)c2ccc(OC)c(OC)c2)cc1 (centres undefined),,"inconclusive: 1.85 µM [inhibitor, partial curve]"
c1ccc2c(c1)ncn2-c1ccc(-c2ccnc3ncnn23)cc1,,"inconclusive: 2.33 µM [inhibitor, single point]"
COC(=O)[C@H](Cc1c[nH]c2ccccc12)NC(=O)NCc1ccc(OC)c(OC)c1,inactive: 0.868%,
CCOC(=O)C1CCCN(C(=O)CS(=O)(=O)Cc2ccccc2)C1 (centres undefined),inactive: 2.3%,
COc1ccccc1/C=C1/C(=N/O)C2CCN1CC2,inactive: -3.91%,
COc1ccc(C2C3=C(CCCC3=O)Nc3nc(SCc4ccc(C(=O)O)cc4)nn32)cc1OC (centres undefined),,"inconclusive: 10.4 µM [inhibitor, partial curve]"
Cc1ccccc1N(C(=O)Cc1ccsc1)C(C(=O)NC1CCCCC1)c1ccc(F)cc1 (centres undefined),,"inconclusive: 0.0033 µM [inhibitor, full curve, poor fit]"
Nc1nc2c(F)cccc2s1,inactive: 0%,
COCCN(C(=S)Nc1ccc(Cl)cc1OC)C1CCN(C(C)=O)CC1,inactive: 15%,
O=C(c1ccco1)N1CCN(Cc2cc(=O)c(OCc3cccc(Cl)c3)co2)CC1,,"inconclusive: 4.15 µM [inhibitor, full curve, poor fit]"
O=C(NCC1CCCN1S(=O)(=O)c1cccs1)c1ccccc1F (centres undefined),,"inconclusive: 18.5 µM [inhibitor, single point]"
CCOC(=O)c1sc(NC(=O)c2ccccc2OCC)nc1C,inactive: 6.37%,
O=C(c1ccco1)N1CCN(C(=O)c2cn(-c3ccccc3)nc2-c2ccccc2)CC1,inactive: 17.2%,
Cc1ccc(N2CCCn3c2cc(C)c(C#N)c3=O)cc1C,,"inconclusive: 5.86 µM [inhibitor, single point]"
O=S(=O)(c1ccccc1)c1cnc(-c2cccnc2)nc1-c1ccccc1,,"inconclusive: 1.47 µM [inhibitor, partial curve, poor fit]"
c1ccc(CCCNCC2COc3ccccc3O2)cc1 (centres undefined),inactive: -1.03%,
NC(=O)c1nsc(C(=O)N(CC(=O)NC2CCCC2)c2cnc3ccccc3c2)c1N,,"inconclusive: 18.5 µM [inhibitor, single point]"
Cc1ccc(CNc2nc(C)nc3sc4c(c23)CCC4)cc1,,"inconclusive: 0.104 µM [inhibitor, full curve, poor fit]"

# 3 successive entries from above, for reference:
SMILES,"activity change, negative = inhibition",Potency
CCOc1cccc(C2/C(=C(/O)c3ccc4c(c3)CC(C)O4)C(=O)C(=O)N2Cc2cccnc2)c1 (centres undefined),,"inconclusive: 18.5 µM [inhibitor, single point]"
CCN(CC(=O)NCc1cccs1)C(=O)COc1ccccc1C#N,,"inconclusive: 10.4 µM [inhibitor, single point]"
CCOc1cc(NC(=O)c2cccs2)c(OCC)cc1NC(=O)CCC(=O)NCCN1CCOCC1,,"inconclusive: 18.5 µM [inhibitor, single point]"

# A draw from above in order of SMILES length, rising:
SMILES,"activity change, negative = inhibition",Potency
COc1ccc(-c2ccc(S(=O)(=O)NCC3CCCO3)cc2)cc1 (centres undefined),,"inconclusive: 11.7 µM [inhibitor, single point]"
O=C(c1ccco1)N1CCN(Cc2cc(=O)c(OCc3cccc(Cl)c3)co2)CC1,,"inconclusive: 4.15 µM [inhibitor, full curve, poor fit]"
COc1ccc(CCNC(=O)C(=O)NCC2OCCN2S(=O)(=O)c2ccc(OC)c(OC)c2)cc1 (centres undefined),,"inconclusive: 1.85 µM [inhibitor, partial curve]"
